{"source": "PubChem BioAssay AID1259405, NCATS, 2018", "purpose": "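Knock-downs that lift recombinant protein yield in hamster ovary cells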 (primary screen)", "cell system": "Chinese hamster CHO-K1 ovary cells with stable secreted eGFP expression", "reagent": "single siRNA against mouse genes, 0.8 pmol siRNA per well (2 µl of 400 nM stock)", "duration": "3 days", "detection": "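Per-well intracellular GFP measured by laser scanning cytometry, plus viability from ATP luminescence, each relative to plate median of non-targeting control wells, in %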", "reading the numbers": "GFP, % of control: higher = more GFP per well, higher productivity; viability (ATP), % of control: higher = more viable cells (more ATP)", "rule for the call": "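Called active when intracellular GFP, relative to negative control, is at or above 120%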", "note": "This is one part, drawn at random, of about 50,000 deposited reagents. Over the whole deposit, about 4,000 (8%) were called active. 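Mouse siRNA library applied to hamster cells; one well for each siRNA.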 The numbers tell different reagents against one gene apart. Reagent sequences are not shown."}
{"gene": "Ppwd1 (peptidylprolyl isomerase domain and WD repeat containing 1)", "reagent no.": 1, "GFP, % of control": 60.3, "viability (ATP), % of control": 85.9, "Outcome": "inactive"}
{"gene": "Ppwd1 (peptidylprolyl isomerase domain and WD repeat containing 1)", "reagent no.": 2, "GFP, % of control": 76.8, "viability (ATP), % of control": 87.7, "Outcome": "inactive"}
{"gene": "Ppwd1 (peptidylprolyl isomerase domain and WD repeat containing 1)", "reagent no.": 3, "GFP, % of control": 71.1, "viability (ATP), % of control": 80.2, "Outcome": "inactive"}
{"gene": "Adora1 (adenosine A1 receptor)", "reagent no.": 1, "GFP, % of control": 104, "viability (ATP), % of control": 86.8, "Outcome": "inactive"}
{"gene": "Adora1 (adenosine A1 receptor)", "reagent no.": 2, "GFP, % of control": 70.8, "viability (ATP), % of control": 71.5, "Outcome": "inactive"}
{"gene": "Adora1 (adenosine A1 receptor)", "reagent no.": 3, "GFP, % of control": 89.3, "viability (ATP), % of control": 62.9, "Outcome": "inactive"}
{"gene": "Tcf7l1 (transcription factor 7 like 1 (T cell specific, HMG box))", "reagent no.": 1, "GFP, % of control": 89.1, "viability (ATP), % of control": 91.2, "Outcome": "inactive"}
{"gene": "Tcf7l1 (transcription factor 7 like 1 (T cell specific, HMG box))", "reagent no.": 2, "GFP, % of control": 82.9, "viability (ATP), % of control": 89.9, "Outcome": "inactive"}
{"gene": "Ogg1 (8-oxoguanine DNA-glycosylase 1)", "reagent no.": 1, "GFP, % of control": 104, "viability (ATP), % of control": 110, "Outcome": "inactive"}
{"gene": "Ogg1 (8-oxoguanine DNA-glycosylase 1)", "reagent no.": 2, "GFP, % of control": 51.4, "viability (ATP), % of control": 76.4, "Outcome": "inactive"}
{"gene": "Ogg1 (8-oxoguanine DNA-glycosylase 1)", "reagent no.": 3, "GFP, % of control": 80.3, "viability (ATP), % of control": 83.9, "Outcome": "inactive"}
{"gene": "Fmr1nb (Fmr1 neighbor)", "reagent no.": 1, "GFP, % of control": 80.1, "viability (ATP), % of control": 80.2, "Outcome": "inactive"}
{"gene": "Fmr1nb (Fmr1 neighbor)", "reagent no.": 2, "GFP, % of control": 73.6, "viability (ATP), % of control": 69.7, "Outcome": "inactive"}
{"gene": "Fmr1nb (Fmr1 neighbor)", "reagent no.": 3, "GFP, % of control": 90.5, "viability (ATP), % of control": 82.9, "Outcome": "inactive"}
{"gene": "Hoxc10 (homeobox C10)", "reagent no.": 1, "GFP, % of control": 124, "viability (ATP), % of control": 113, "Outcome": "active"}
{"gene": "Hoxc10 (homeobox C10)", "reagent no.": 2, "GFP, % of control": 107, "viability (ATP), % of control": 102, "Outcome": "inactive"}
{"gene": "Hoxc10 (homeobox C10)", "reagent no.": 3, "GFP, % of control": 54.7, "viability (ATP), % of control": 83.1, "Outcome": "inactive"}
{"gene": "Rhox8 (reproductive homeobox 8)", "reagent no.": 1, "GFP, % of control": 57.6, "viability (ATP), % of control": 64.2, "Outcome": "inactive"}
{"gene": "Rhox8 (reproductive homeobox 8)", "reagent no.": 2, "GFP, % of control": 93.1, "viability (ATP), % of control": 46, "Outcome": "inactive"}
{"gene": "Rhox8 (reproductive homeobox 8)", "reagent no.": 3, "GFP, % of control": 119, "viability (ATP), % of control": 85.3, "Outcome": "inactive"}
{"gene": "Grk2 (G protein-coupled receptor kinase 2)", "reagent no.": 1, "GFP, % of control": 96.3, "viability (ATP), % of control": 87.3, "Outcome": "inactive"}
{"gene": "Or4c10 (olfactory receptor family 4 subfamily C member 10)", "reagent no.": 1, "GFP, % of control": 62.2, "viability (ATP), % of control": 50.3, "Outcome": "inactive"}
{"gene": "Or4c10 (olfactory receptor family 4 subfamily C member 10)", "reagent no.": 2, "GFP, % of control": 55.3, "viability (ATP), % of control": 42.7, "Outcome": "inactive"}
{"gene": "Or4c10 (olfactory receptor family 4 subfamily C member 10)", "reagent no.": 3, "GFP, % of control": 43.7, "viability (ATP), % of control": 122, "Outcome": "inactive"}
{"gene": "Hars2 (histidyl-tRNA synthetase 2)", "reagent no.": 1, "GFP, % of control": 60.4, "viability (ATP), % of control": 75.1, "Outcome": "inactive"}
{"gene": "Hars2 (histidyl-tRNA synthetase 2)", "reagent no.": 2, "GFP, % of control": 65.6, "viability (ATP), % of control": 68.5, "Outcome": "inactive"}
{"gene": "Hars2 (histidyl-tRNA synthetase 2)", "reagent no.": 3, "GFP, % of control": 80.2, "viability (ATP), % of control": 86.9, "Outcome": "inactive"}
{"gene": "Dennd1c (DENN domain containing 1C)", "reagent no.": 1, "GFP, % of control": 75.9, "viability (ATP), % of control": 60, "Outcome": "inactive"}
{"gene": "Dennd1c (DENN domain containing 1C)", "reagent no.": 2, "GFP, % of control": 79.2, "viability (ATP), % of control": 59.6, "Outcome": "inactive"}
{"gene": "Dennd1c (DENN domain containing 1C)", "reagent no.": 3, "GFP, % of control": 70.9, "viability (ATP), % of control": 81.1, "Outcome": "inactive"}
{"gene": "Col26a1 (collagen, type XXVI, alpha 1)", "reagent no.": 1, "GFP, % of control": 60.3, "viability (ATP), % of control": 70.4, "Outcome": "inactive"}
{"gene": "Col26a1 (collagen, type XXVI, alpha 1)", "reagent no.": 2, "GFP, % of control": 109, "viability (ATP), % of control": 82.1, "Outcome": "inactive"}
{"gene": "Col26a1 (collagen, type XXVI, alpha 1)", "reagent no.": 3, "GFP, % of control": 73.8, "viability (ATP), % of control": 76.7, "Outcome": "inactive"}
{"gene": "Spen (spen family transcription repressor)", "reagent no.": 1, "GFP, % of control": 96.1, "viability (ATP), % of control": 99.1, "Outcome": "inactive"}
{"gene": "Spen (spen family transcription repressor)", "reagent no.": 2, "GFP, % of control": 46.8, "viability (ATP), % of control": 52.5, "Outcome": "inactive"}
{"gene": "Spen (spen family transcription repressor)", "reagent no.": 3, "GFP, % of control": 79.3, "viability (ATP), % of control": 77.9, "Outcome": "inactive"}

Next part, starting with the last 6 of the part before.
{"gene": "Col26a1 (collagen, type XXVI, alpha 1)", "reagent no.": 1, "GFP, % of control": 60.3, "viability (ATP), % of control": 70.4, "Outcome": "inactive"}
{"gene": "Col26a1 (collagen, type XXVI, alpha 1)", "reagent no.": 2, "GFP, % of control": 109, "viability (ATP), % of control": 82.1, "Outcome": "inactive"}
{"gene": "Col26a1 (collagen, type XXVI, alpha 1)", "reagent no.": 3, "GFP, % of control": 73.8, "viability (ATP), % of control": 76.7, "Outcome": "inactive"}
{"gene": "Spen (spen family transcription repressor)", "reagent no.": 1, "GFP, % of control": 96.1, "viability (ATP), % of control": 99.1, "Outcome": "inactive"}
{"gene": "Spen (spen family transcription repressor)", "reagent no.": 2, "GFP, % of control": 46.8, "viability (ATP), % of control": 52.5, "Outcome": "inactive"}
{"gene": "Spen (spen family transcription repressor)", "reagent no.": 3, "GFP, % of control": 79.3, "viability (ATP), % of control": 77.9, "Outcome": "inactive"}
{"gene": "Cdc34 (cell division cycle 34)", "reagent no.": 1, "GFP, % of control": 56.6, "viability (ATP), % of control": 76.4, "Outcome": "inactive"}
{"gene": "Cdc34 (cell division cycle 34)", "reagent no.": 2, "GFP, % of control": 83.4, "viability (ATP), % of control": 69.4, "Outcome": "inactive"}
{"gene": "Cdc34 (cell division cycle 34)", "reagent no.": 3, "GFP, % of control": 61.9, "viability (ATP), % of control": 117, "Outcome": "inactive"}
{"gene": "Ptpdc1 (protein tyrosine phosphatase domain containing 1)", "reagent no.": 1, "GFP, % of control": 91.1, "viability (ATP), % of control": 85.8, "Outcome": "inactive"}
{"gene": "Ptpdc1 (protein tyrosine phosphatase domain containing 1)", "reagent no.": 2, "GFP, % of control": 91.2, "viability (ATP), % of control": 88.2, "Outcome": "inactive"}
{"gene": "Ptpdc1 (protein tyrosine phosphatase domain containing 1)", "reagent no.": 3, "GFP, % of control": 89, "viability (ATP), % of control": 70.8, "Outcome": "inactive"}
{"gene": "Caprin1 (cell cycle associated protein 1)", "reagent no.": 1, "GFP, % of control": 92.2, "viability (ATP), % of control": 85.7, "Outcome": "inactive"}
{"gene": "Caprin1 (cell cycle associated protein 1)", "reagent no.": 2, "GFP, % of control": 67.9, "viability (ATP), % of control": 75.8, "Outcome": "inactive"}
{"gene": "Caprin1 (cell cycle associated protein 1)", "reagent no.": 3, "GFP, % of control": 80.4, "viability (ATP), % of control": 96.9, "Outcome": "inactive"}
{"gene": "Cul5 (cullin 5)", "reagent no.": 1, "GFP, % of control": 81.4, "viability (ATP), % of control": 93.7, "Outcome": "inactive"}
{"gene": "Cul5 (cullin 5)", "reagent no.": 2, "GFP, % of control": 64.8, "viability (ATP), % of control": 48, "Outcome": "inactive"}
{"gene": "Cul5 (cullin 5)", "reagent no.": 3, "GFP, % of control": 57, "viability (ATP), % of control": 56.9, "Outcome": "inactive"}
{"gene": "Gtf3c4 (general transcription factor IIIC, polypeptide 4)", "reagent no.": 1, "GFP, % of control": 39.8, "viability (ATP), % of control": 57.1, "Outcome": "inactive"}
{"gene": "Gtf3c4 (general transcription factor IIIC, polypeptide 4)", "reagent no.": 2, "GFP, % of control": 83.3, "viability (ATP), % of control": 72.3, "Outcome": "inactive"}
{"gene": "Gtf3c4 (general transcription factor IIIC, polypeptide 4)", "reagent no.": 3, "GFP, % of control": 70.5, "viability (ATP), % of control": 63.3, "Outcome": "inactive"}
{"gene": "Mlycd (malonyl-CoA decarboxylase)", "reagent no.": 1, "GFP, % of control": 44.2, "viability (ATP), % of control": 34.5, "Outcome": "inactive"}
{"gene": "Mlycd (malonyl-CoA decarboxylase)", "reagent no.": 2, "GFP, % of control": 69.1, "viability (ATP), % of control": 77.5, "Outcome": "inactive"}
{"gene": "Mlycd (malonyl-CoA decarboxylase)", "reagent no.": 3, "GFP, % of control": 67.7, "viability (ATP), % of control": 45.2, "Outcome": "inactive"}
